Data: patent US20230146455A1 (Yuyu Pharma, Inc., priority 2020, published 2023)
Where “and” joins values, the source holds several entries; their conditions need not be identical. Equal values may be shown once. Where no unit stands, none is given here, and values compare only within one read-out. Where a SMILES comes first, the peptide text is derived from it. [ ]: non-standard residue; d: D form. Hyp = O=C(O)[C@@H]1C[C@@H](O)CN1

Key:
TNF-alpha = test: Example 9 Luminex, LPS hPBMCs: TNF-alpha; format: cell-based, human
Protocol: (§1) Treatment Human PBMCs were pretreated with YY-101, YDE-011 and YDE-043 or reference compound; Xiidra® at various concentration (ranging from 1 nM to 100 uM) for 2 h before stimulation. An equal volume of 0.5% DMSO was used as a vehicle control. Then, the cells were treated with LPS at 5 ug/ml. The supernatants from treated cells were harvested at 24 h and placed in a 96 well for Luminex cytokine & chemokine profiling using a Luminex 200 multiplex assay (Luminex; R&D system, USA).
(§2) The main study arm with triplicate wells per group in a 24-well plate: • 1. Blank • 2. PBMC: 0.5% DMSO • 3. PBMC+LPS (5 ug/ml) • 4. PBMC+YY-101 100 uM • 5. PBMC+YY-101 10 uM • 6. PBMC+YY-101 1 uM • 7. PBMC+YY-101 0.1 uM • 8. PBMC+YY-101 0.01 uM • 9. PBMC+LPS (5 ug/ml)+Xiidra®100 uM • 10. PBMC+LPS (5 ug/ml)+Xiidra® 10 uM • 11. PBMC+LPS (5 ug/ml)+Xiidra® 1 uM • 12. PBMC+LPS (5 ug/ml)+Xiidra®0.1 uM • 13. PBMC+LPS (5 ug/ml)+Xiidra®0.01 uM • 14. PBMC+LPS (5 ug/ml)+Xiidra®0.001 uM • 15. PBMC+LPS (5 ug/ml)+YY-101 100 uM • 16. PBMC+LPS (5 ug/ml)+YY-101 10 uM • 17. PBMC+LPS (5 ug/ml)+YY-101 1 uM • 18. PBMC+LPS (5 ug/ml)+YY-101 0.1 uM • 19. PBMC+LPS (5 ug/ml)+YY-101 0.01 uM • 20. PBMC+LPS (5 ug/ml)+YY-101 0.001 uM • 21. PBMC+LPS (5 ug/ml)+YDE-011 100 uM • 22. PBMC+LPS (5 ug/ml)+YDE-011 10 uM • 23. PBMC+LPS (5 ug/ml)+YDE-011 1 uM • 24. PBMC+LPS (5 ug/ml)+YDE-011 0.1 uM • 25. PBMC+LPS (5 ug/ml)+YDE-011 0.01 uM • 26. PBMC+LPS (5 ug/ml)+YDE-011 0.001 uM • 27. PBMC+LPS (5 ug/ml)+YDE-043 100 uM • 28. PBMC+LPS (5 ug/ml)+YDE-043 10 uM • 29. PBMC+LPS (5 ug/ml)+YDE-043 1 uM • 30. PBMC+LPS (5 ug/ml)+YDE-043 0.1 uM • 31. PBMC+LPS (5 ug/ml)+YDE-043 0.01 uM • 32. PBMC+LPS (5 ug/ml)+YDE-043 0.001 uM
(§3) Multiplex assay was used to measure 30 cytokines and chemokines. The 1:2, 1:10 and 1:200 diluted cell supernatant and serial dilution of the standard were dispensed into a 96 well plate at 50 ul/well. Then, the pre-mixed cocktail of antibody-coated magnetic beads was dispensed at 50 ul/well and incubated at room temperature for 2 h in a horizontal orbital microplate shaker at 800±500 rpm. The beads were washed using a magnetic device to prevent loss. The biotin-antibody was dispensed in 50 ul of each well and incubated at room temperature for 1 h in a shaker at 800±500 rpm. After washing, streptavidin-PE was added at 50 ul/well and incubated at room temperature for 30 min in a shaker under the same conditions. Finally, after washing, wash buffer (100 ul/well) was added to the plate and incubated in a shaker for 2 min. The Luminex™ 200 setting were set according to the manufacturer's protocol. The data was calculated with a standard five-parameter logistic nonlinear regression analysis of the data (xPonent software 4.2, USA). The levels of cytokine/chemokine are normalized to the live cell counts (1×10^5 cells/mL) and presented as concentrations per mL (pg/mL or ng/mL).

CCL3/MIP-1 alpha = test: Example 9 Luminex, LPS hPBMCs: CCL3/MIP-1 alpha; format: cell-based, human
Protocol: as §1, §2, §3

[1] = PBMC + LPS(5 ug/ml) + test article 0.001 uM, Mean
[2] = PBMC + LPS(5 ug/ml) + test article 0.01 uM, Mean
[3] = PBMC + LPS(5 ug/ml) + test article 0.1 uM, Mean
[4] = PBMC + LPS(5 ug/ml) + test article 1 uM, Mean
[5] = PBMC + LPS(5 ug/ml) + test article 10 uM, Mean
[6] = PBMC + LPS(5 ug/ml) + test article 100 uM, Mean
[7] = PBMC + test article 0.01 uM, no LPS, Mean
[8] = PBMC + test article 0.1 uM, no LPS, Mean
[9] = PBMC + test article 1 uM, no LPS, Mean
[10] = PBMC + test article 10 uM, no LPS, Mean
[11] = PBMC + test article 100 uM, no LPS, Mean

Q: Which results are given for `CC(C)C[C@H](NC(=O)CNC(=O)[C@H](CC(=O)O)NC(=O)[C@H](CCC(N)=O)NC(=O)CNC(=O)[C@@H]1C[C@@H](O)CN1)C(=O)N[C@@H](C)C(=O)NCC(=O)N1CCC[C@H]1C(=O)N[C@@H](CCCCN)C(=O)O` [YY-101] (H-[Hyp]GQDGLAGPK-OH; N-terminus and C-terminus assumed)?
A: MFI, Bead name: TNF-alpha (TNF-alpha; [1]): 820.5; MFI, Bead name: TNF-alpha (TNF-alpha; PBMC + LPS(5 ug/ml) + test article 0.001 uM, individual replicates (1st, 2nd, 3rd)): 854.5 and 878.0 and 729.0; MFI, Bead name: TNF-alpha (TNF-alpha; [2]): 922.8; MFI, Bead name: TNF-alpha (TNF-alpha; PBMC + LPS(5 ug/ml) + test article 0.01 uM, individual replicates (1st, 2nd, 3rd)): 946.5 and 935.0 and 887.0; MFI, Bead name: TNF-alpha (TNF-alpha; [3]): 957.2; MFI, Bead name: TNF-alpha (TNF-alpha; PBMC + LPS(5 ug/ml) + test article 0.1 uM, individual replicates (1st, 2nd, 3rd)): 937.5 and 963.0 and 971.0; MFI, Bead name: TNF-alpha (TNF-alpha; [4]): 859.5; MFI, Bead name: TNF-alpha (TNF-alpha; PBMC + LPS(5 ug/ml) + test article 1 uM, individual replicates (1st, 2nd, 3rd)): 920.0 and 844.5 and 814.0; MFI, Bead name: TNF-alpha (TNF-alpha; [5]): 922.8; MFI, Bead name: TNF-alpha (TNF-alpha; PBMC + LPS(5 ug/ml) + test article 10 uM, individual replicates (1st, 2nd, 3rd)): 921.0 and 942.5 and 905.0; MFI, Bead name: TNF-alpha (TNF-alpha; [6]): 823.8; MFI, Bead name: TNF-alpha (TNF-alpha; PBMC + LPS(5 ug/ml) + test article 100 uM, individual replicates (1st, 2nd, 3rd)): 865.0 and 783.0 and 823.5; MFI, Bead name: TNF-alpha (TNF-alpha; [7]): 5.5; MFI, Bead name: TNF-alpha (TNF-alpha; PBMC + test article 0.01 uM, no LPS, individual replicates (1st, 2nd)): 5.0 and 6.0; MFI, Bead name: TNF-alpha (TNF-alpha; [8]): 6.0; MFI, Bead name: TNF-alpha (TNF-alpha; PBMC + test article 0.1 uM, no LPS, individual replicates (1st, 2nd)): 5.0 and 7.0; MFI, Bead name: TNF-alpha (TNF-alpha; [9]): 7.5; MFI, Bead name: TNF-alpha (TNF-alpha; PBMC + test article 1 uM, no LPS, individual replicates (1st, 2nd)): 7.0 and 8.0; MFI, Bead name: TNF-alpha (TNF-alpha; [10]): 18.0; MFI, Bead name: TNF-alpha (TNF-alpha; PBMC + test article 10 uM, no LPS, individual replicates (1st, 2nd)): 29.0 and 7.0; MFI, Bead name: TNF-alpha (TNF-alpha; [11]): 22.3; MFI, Bead name: TNF-alpha (TNF-alpha; PBMC + test article 100 uM, no LPS, individual replicates (1st, 2nd)): 30.5 and 14.0; MFI (CCL3/MIP-1 alpha; [1]): 1954.8; MFI (CCL3/MIP-1 alpha; PBMC + LPS(5 ug/ml) + test article 0.001 uM, individual replicates): 2104.5 and 1995.5 and 1764.5; MFI (CCL3/MIP-1 alpha; [2]): 2237.7; MFI (CCL3/MIP-1 alpha; PBMC + LPS(5 ug/ml) + test article 0.01 uM, individual replicates): 2293.5 and 2303.0 and 2116.5; MFI (CCL3/MIP-1 alpha; [3]): 2170.3; MFI (CCL3/MIP-1 alpha; PBMC + LPS(5 ug/ml) + test article 0.1 uM, individual replicates): 2157.0 and 2199.5 and 2154.5; MFI (CCL3/MIP-1 alpha; [4]): 2115.0; MFI (CCL3/MIP-1 alpha; PBMC + LPS(5 ug/ml) + test article 1 uM, individual replicates): 2206.5 and 2029.0 and 2109.5; MFI (CCL3/MIP-1 alpha; [5]): 2386.2; MFI (CCL3/MIP-1 alpha; PBMC + LPS(5 ug/ml) + test article 10 uM, individual replicates): 2406.5 and 2501.0 and 2251.0; MFI (CCL3/MIP-1 alpha; [6]): 2879.0; MFI (CCL3/MIP-1 alpha; PBMC + LPS(5 ug/ml) + test article 100 uM, individual replicates): 3190.5 and 2648.5 and 2798.0; MFI (CCL3/MIP-1 alpha; [7]): −0.3; MFI (CCL3/MIP-1 alpha; PBMC + test article 0.01 uM, no LPS, individual replicates): 0.5 and −1.0; MFI (CCL3/MIP-1 alpha; [8]): −0.5; MFI (CCL3/MIP-1 alpha; PBMC + test article 0.1 uM, no LPS, individual replicates): −0.5; MFI (CCL3/MIP-1 alpha; [9]): 1.0; MFI (CCL3/MIP-1 alpha; PBMC + test article 1 uM, no LPS, individual replicates): 1.5 and 0.5; MFI (CCL3/MIP-1 alpha; [10]): 3.5; MFI (CCL3/MIP-1 alpha; PBMC + test article 10 uM, no LPS, individual replicates): 7.5 and −0.5; MFI (CCL3/MIP-1 alpha; [11]): 1.0; MFI (CCL3/MIP-1 alpha; PBMC + test article 100 uM, no LPS, individual replicates): 2.5 and −0.5
